Where a name gives a salt, the structure may show the parent alone. Read-outs that look alike come from different tables or passages of the source. Screen size: about 3,300 compounds; about 60 (2%) showed an effect of 50% or more. The list shows a part of the results.
Tested on: HCoV-OC43
Parameters: species or system RD; HTS, protection from HCoV-OC43 induced cell death, luminescent cell viability (CellCounting-Lite 2.0), inhibition rate
Settings: 24 h post infection, 1 h compound pre-incubation, 10 µM, inhibitor

SMILES | OC43 Inhibition rate | OC43 Inhibition rate (OC43 Inhibition rate, 24 h)
C=C1C(=O)O[C@@H]2/C=C(/C)C[C@H]3C=C(C[C@H](OC(=O)/C(C)=C\C)[C@@H]12)C(=O)O3 [Scabertopin] | -0.9% | 
O=C1CCCc2c(O)cccc21 [5-Hydroxy-1-tetralone] | 0% | 
CC[C@H]1OC(=O)C[C@@H](O)[C@H](C)[C@@H](O[C@@H]2O[C@H](C)[C@@H](O[C@H]3C[C@@](C)(O)[C@@H](O)[C@H](C)O3)[C@H](N(C)C)[C@H]2O)[C@@H](CC=O)C[C@@H](C)C(=O)/C=C/C(C)=C/[C@@H]1CO[C@@H]1O[C@H](C)[C@@H](O)[C@@H](OC)[C@H]1OC [Tylosin] |  | 24.7%
CC1=CC[C@@H](C(C)(C)O)CC1 [(-)-α-Terpineol] |  | -0.1%
CC(=O)CCc1ccc(O)cc1 [Raspberry ketone] | 0.8% | 
C[C@@H]1[C@H](O)[C@@H](C)/C=C/C=C/C=C/C=C/C=C/C=C/C=C/[C@H](O[C@@H]2O[C@H](C)[C@@H](O)[C@H](N)[C@@H]2O)C[C@@H]2O[C@](O)(C[C@@H](O)C[C@@H](O)[C@H](O)CC[C@@H](O)C[C@@H](O)CC(=O)O[C@H]1C)C[C@H](O)[C@H]2C(=O)O [amphotericin B] | 103.7% | 
CC(C)=CCCC(C)CC=O (stereo not drawn) [Citronellal] | -0.5% | 
OC[C@H]1O[C@@H]2O[C@H]3[C@H](O)[C@@H](O)[C@@H](O[C@H]4[C@H](O)[C@@H](O)[C@@H](O[C@H]5[C@H](O)[C@@H](O)[C@@H](O[C@H]6[C@H](O)[C@@H](O)[C@@H](O[C@H]7[C@H](O)[C@@H](O)[C@@H](O[C@H]8[C@H](O)[C@@H](O)[C@@H](O[C@H]1[C@H](O)[C@H]2O)O[C@@H]8CO)O[C@@H]7CO)O[C@@H]6CO)O[C@@H]5CO)O[C@@H]4CO)O[C@@H]3CO [β-Cyclodextrin] | -0.4% | 
CCNC(=O)CC[C@H](N)C(=O)O [L-Theanine] | 1.5% | 
N[C@H](CO)C(=O)O [D-Serine] | -1.1% | 
COc1cc(O)cc(CCc2ccc(O)c(OC)c2)c1 [Gigantol] | -0.3% | 
O=P(O)(O)O[C@H]1[C@H](OP(=O)(O)O)[C@@H](OP(=O)(O)O)[C@H](OP(=O)(O)O)[C@@H](OP(=O)(O)O)[C@H]1OP(=O)(O)O [Phytic acid (potassium)] |  | -0.6%
N[C@@H](CS)C(=O)O [L-Cysteine (hydrochloride hydrate)] |  | -0.2%
COc1cccc(CCc2cc(O)cc(OC)c2)c1 [3'-O-Methylbatatasin III] | 1% | 
C=C1[C@@H](O)[C@]2(O)OC[C@]34[C@H]2[C@@]2(C)[C@H](O)C(=O)C=C(C)[C@@H]2C[C@H]3OC(=O)[C@H](O)[C@@]14O [Eurycomanone] | 54.5% | 
C[C@@H](O)[C@@H](N)C(=O)O [D-Allothreonine] | -0.1% | 
C=C[C@@]1(C)CC[C@H]2C(=CC[C@@H]3[C@]2(C)CCC[C@@]3(C)C(=O)O)C1 [Isopimaric acid] | 16.1% | 
CN1CC(=O)NC1=N [Creatinine] | 0.6% | 

Given field by field: entries from further up
COc1cc(O)cc(CCc2ccc(O)c(OC)c2)c1 [Gigantol]
  OC43 Inhibition rate: -0.3%
O=P(O)(O)O[C@H]1[C@H](OP(=O)(O)O)[C@@H](OP(=O)(O)O)[C@H](OP(=O)(O)O)[C@@H](OP(=O)(O)O)[C@H]1OP(=O)(O)O [Phytic acid (potassium)]
  OC43 Inhibition rate (OC43 Inhibition rate, 24 h): -0.6%
N[C@@H](CS)C(=O)O [L-Cysteine (hydrochloride hydrate)]
  OC43 Inhibition rate (OC43 Inhibition rate, 24 h): -0.2%

Following part.

SMILES | OC43 Inhibition rate | OC43 Inhibition rate (OC43 Inhibition rate, 24 h)
C=C(C)C1CC=C(C)C(O)C1 (mixture of isomers) [Carveol] | 1.3% | 
O=c1c(O[C@@H]2O[C@H](CO)[C@@H](O)[C@H](O)[C@H]2O[C@@H]2O[C@H](CO)[C@@H](O)[C@H](O)[C@H]2O)c(-c2ccc(O)cc2)oc2cc(O)cc(O)c12 [Kaempferol 3-O-sophoroside] | -0.1% | 
O=c1cc(-c2ccc(O)c(O)c2)oc2cc(O)cc(O)c12 [Luteolin] | 3.8% | 
C[C@H](CCC(=O)O)[C@H]1CC[C@H]2[C@@H]3C=CC4=CC(=O)CC[C@]4(C)[C@H]3CC[C@]12C [3-Oxo-4,6-choladien-24-oic acid] | -0.1% | 
C[C@H](CCC(=O)NCC(=O)O)[C@H]1CC[C@H]2[C@@H]3CC[C@@H]4C[C@H](O)CC[C@]4(C)[C@H]3C[C@H](O)[C@]12C [Glycodeoxycholic acid (monohydrate)] |  | -0.8%
CCCCC1OC(=O)C2=CCCCC21 (stereo not drawn) [Sedanolide] | -0.1% | 
COc1ccc(/C=C/C(=O)O)cc1 [4-Methoxycinnamic acid] |  | -0.5%
O=C(Nc1ccccc1)Nc1ccnc(Cl)c1 [Forchlorfenuron] | -2.5% | 
O=C1C[C@@H](c2ccc(O)cc2)Oc2cc(O[C@@H]3O[C@H](CO)[C@@H](O)[C@H](O)[C@H]3O[C@@H]3OC[C@](O)(CO)[C@H]3O)ccc21 [Liquiritigenin-7-O-β-D-glucopyranosyl-(1→2)-β-D-apiofuranoside] | -0.7% | 
CO[C@H]1O[C@@H]2O[C@@]3(C)CC[C@H]4[C@H](C)CC[C@@H]([C@H]1C)[C@@]24OO3 [Artemether] | -2.1% | 
NC(COP(=O)(O)O)C(=O)O (racemic) [DL-O-Phosphoserine] | -1.4% | 
O=C(O)C/C=C/CC(=O)O [Trans-2-butene-1,4-dicarboxylic acid] | 2.7% | 
O=c1c2ccccc2oc2ccccc12 [Xanthone] | 4.7% | 
COc1cc(OC)c2c(=O)cc(-c3ccc(OC)c(OC)c3)oc2c1 [5,7,3',4'-Tetramethoxyflavone] | 0% | 
COc1c(O[C@@H]2O[C@H](CO)[C@@H](O)[C@H](O)[C@H]2O)cc2occ(-c3ccc(O)cc3)c(=O)c2c1O [Tectoridin] | 25.2% | 
C=CC1(C)CCC(C(C)(C)O)O1 (stereo not drawn) [Linalool oxide] | -0.1% | 
O=c1cc(-c2ccc(O)c(O)c2)oc2c([C@@H]3O[C@H](CO)[C@@H](O)[C@H](O)[C@H]3O[C@H]3O[C@@H](CO)[C@@H](O)[C@@H](O)[C@@H]3O)c(O)cc(O)c12 [2"-O-beta-L-galactopyranosylorientin] | 1.4% | 
CC(=O)[C@H]1CC[C@H]2[C@@H]3CC=C4C[C@@H](OS(=O)(=O)O)CC[C@]4(C)[C@H]3CC[C@]12C [Pregnenolone monosulfate (sodium)] | 0.1% | 

From PMC12431657, “Discovery and mechanistic insights of dibenzoylmethane as a broad spectrum inhibitor of coronavirus” (PLOS Pathogens, 2025)
